## Library screening results

Amino acid sequences for entries named in this document (tags omitted).
UniProt E9BF75, entry or part of it: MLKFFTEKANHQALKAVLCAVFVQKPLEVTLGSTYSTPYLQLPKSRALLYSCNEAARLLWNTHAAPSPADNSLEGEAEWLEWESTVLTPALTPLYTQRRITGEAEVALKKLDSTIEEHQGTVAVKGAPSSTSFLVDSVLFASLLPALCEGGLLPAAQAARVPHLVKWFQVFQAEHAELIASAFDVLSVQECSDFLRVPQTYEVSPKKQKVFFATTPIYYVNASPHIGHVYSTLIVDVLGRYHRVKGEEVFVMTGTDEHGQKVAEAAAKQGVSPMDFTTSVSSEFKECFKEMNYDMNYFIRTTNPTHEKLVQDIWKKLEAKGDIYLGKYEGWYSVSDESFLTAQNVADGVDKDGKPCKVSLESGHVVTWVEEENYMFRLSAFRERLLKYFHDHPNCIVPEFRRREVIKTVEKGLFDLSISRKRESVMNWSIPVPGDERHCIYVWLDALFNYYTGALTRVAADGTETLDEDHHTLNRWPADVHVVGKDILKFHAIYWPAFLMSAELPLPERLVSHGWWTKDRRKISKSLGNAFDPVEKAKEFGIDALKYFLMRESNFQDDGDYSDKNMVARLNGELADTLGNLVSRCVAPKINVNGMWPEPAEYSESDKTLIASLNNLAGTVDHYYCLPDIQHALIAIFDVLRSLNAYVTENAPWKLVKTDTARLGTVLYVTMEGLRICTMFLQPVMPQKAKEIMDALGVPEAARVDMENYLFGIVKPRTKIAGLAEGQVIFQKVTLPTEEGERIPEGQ

Results are percentages, as filed. How 0% and 100% were set is not recorded. Most values in the screen are low, and negative values occur. The compounds are a random part of those screened. A dash means the value is not listed here; it may have been measured.

A: 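Assay on Mycobacterium tuberculosis, filed only as a heat shock assay from Cornell; the read-out is not stated. The concentration is filed as 10 mM, unlikely as a test dose, so the dose is not known. The record gives no direction; compounds that gave an IC50 in retests scored well above the rest, so higher reads as stronger inhibition. Of about 69,000 compounds tested this way, about 930 (1.4%) reached 50% or more in at least one test.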
B: 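Whole-cell assay for inhibitors of Mycobacterium tuberculosis growth, labelled Cornell in the record; the read-out is not stated. The concentration is filed as 10 mM, unlikely as a test dose, so the dose is not known. The record gives no direction; compounds strong in two other growth screens of this library score well above the rest, so higher reads as stronger inhibition. Size under these conditions: about 53,000 compounds, about 900 of them at 50% or above in at least one test.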
C: 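Methionyl-tRNA synthetase (putative), Leishmania donovani (UniProt E9BF75). Primary screen of methionyl-tRNA synthetase; the read-out is not stated. The test concentration is not given. The values are filed as inhibition. Size under these conditions: about 68,000 compounds, about 24 of them at 50% or above in at least one test.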

| Compound | A | B | C |
|---|---|---|---|
| `COc1ccc(CNC(Cc2ccsc2)c2ccc(C)cn2)cc1OC.Cl` (configuration not stated) | 97.07% | 26.36% | - |
| `COc1cc(CNC(C)Cn2ccnc2)cc2c1OCO2.Cl` (configuration not stated) | -13.26% | - | - |
| `Cc1cc(CN2CCCC2Cn2cccn2)no1` (configuration not stated) | 23.5% | - | 11.05% |
| `Cc1cnc(C(=O)N2C[C@H]3CN(Cc4cccnc4)C[C@H]3C2)cn1` | - | - | 10.46% |
| `Cc1cc(CN2CCN(C(=O)c3sccc3C3CC3)CC2)on1` | -10.94% | - | 9.722% |
| `CNC(=O)[C@H]1C[C@@H]2CN(Cc3ccc(C)cc3)C[C@H]1O2` | - | - | 7.143% |
| `COc1ccc(CN(C)c2nccc(-c3cn(C)nc3C)n2)cc1` | -15% | 8.494% | 12.9% |
| `O=C(O)C(F)(F)F.[H][C@]12CCC[C@@]1(COCc1cccnc1)CN(C(=O)c1ccsc1)C2` | -16.41% | - | - |
| `CCNc1ncc(C(=O)N2CCC(c3ccccc3C(=O)O)C2)cn1` (configuration not stated) | -3.635% | -6.516% | 9.045% |
| `O=C(NC1CC1)[C@H]1C[C@H]2OCC[C@H]2N(Cc2cccc3ccccc23)C1` | - | - | 17.73% |
| `CC(=O)N1CCOC(c2cc(N3CC(O)C3)nc(C)n2)C1` (configuration not stated) | 7.183% | - | 10.8% |
| `COc1ccccc1C(=O)N1CC(=O)N(Cc2ccco2)CC(O)C1` (configuration not stated) | 54.55% | -61.35% | 12.88% |
| `CCCN1CCc2nc(SCc3ccccc3F)[nH]c(=O)c2C1` | 22.01% | -23.52% | 6.475% |
| `CSc1ccc(OC(C)C(=O)Nc2cc[nH]n2)cc1` (configuration not stated) | -20.77% | - | 12.88% |
| `COc1cccc(N2CCN(C(=O)C(O)c3cccc(Cl)c3)CC2=O)c1` (configuration not stated) | -15.61% | - | 10.51% |
| `CCNc1nc(C)c(C(=O)N(C)Cc2nc(CC)no2)s1` | -22.15% | -12.42% | 8.982% |
| `O=C1CC(Cc2ccc(NC(=O)c3cccc(F)c3)cc2)C(=O)N1` (configuration not stated) | -11.09% | 4.3% | 11.71% |
| `CCC(O)Cn1nc(CCSC)nc1-c1ccc2[nH]ccc2c1` (configuration not stated) | -5.353% | -2.813% | 4.178% |
| `Cc1cnn(CCNCc2cc(C#N)ccc2F)c1` | -20.19% | - | 7.937% |
| `CSc1ncc(C(=O)N2CCN(c3ccccc3C)CC2C)cn1` (configuration not stated) | 31.3% | - | 8.791% |
| `Cc1cccc(N2CCOCC3(C2)CN(c2cccnc2)C(=O)CO3)n1` (configuration not stated) | 3.965% | -4.269% | 2.198% |
| `C=C(C)CN(CC)C(=O)c1cc(F)ccc1N1CCN(C)CC1` | -1.804% | -3.805% | 12.2% |
| `Cc1nc(Cn2nc(C3CCNCC3)n(Cc3ccccc3)c2=O)no1` | -8.696% | - | 6.159% |
| `COc1ccc(C(=O)N(C)Cc2cc(C)on2)c(OC)c1` | 10.62% | -10.17% | 10.44% |
| `O=C(O)C(F)(F)F.O=C(O)C(F)(F)F.[H][C@@]12OCCN(C3CCCC3)[C@@]1([H])CC[C@@H]2Oc1cccnc1` | -37.39% | -5.659% | - |
| `O=C(NC1CC1)c1nnn(-c2cccc(C(F)(F)F)c2)c1C1CC1` | -34.61% | 20.48% | 15.01% |
| `Cc1cnc(NC2CCc3c(ccc(=O)n3CC3CC3)C2)nc1` (configuration not stated) | -32.22% | 2.954% | 8.042% |
| `CC(C)N1CCC2(CCCN(c3nccc(C(F)(F)F)n3)C2)CC1.O=C(O)C(F)(F)F` | -0.9198% | - | - |
| `CCn1cnnc1CNC(=O)NC(c1cccs1)C1CCCC1` (configuration not stated) | -29.59% | - | 9.036% |
| `COCc1cc(CN(C)C(C(=O)O)c2cc(C)c(OC)c(C)c2)n[nH]1` (configuration not stated) | -6.877% | 12.69% | 7.379% |
| `CC(C)CN1CC[C@H](c2nnc(COc3ccc(F)cc3)o2)C1` | 15.46% | - | 9.341% |
| `CCOC(=O)c1ccc(NC(=O)c2c(O)nc3c(c2O)CCCC3)cc1` | 1.387% | - | 12% |
| `COCc1ccccc1C(=O)NS(=O)(=O)c1ccc2c(c1)CCC(=O)N2` | 19.79% | 21.34% | 17.58% |
| `CNC(=O)[C@H]1C[C@@H]2CN(C(=O)c3cnc(C)cn3)C[C@@H]2N1C` | - | - | 18.49% |
| `CC(O)(CNC(=O)c1cccnc1-n1cccn1)c1cccs1` (configuration not stated) | 12.59% | 6.576% | 12.91% |
| `CC(=O)N1CCCC2(CCN(c3ccccc3)C2=O)C1` (configuration not stated) | -17.38% | -16.76% | 2.801% |
| `CCOC1COC2(CCN(c3cccc(C)n3)CC2)C1.O=C(O)C(F)(F)F` (configuration not stated) | -0.3848% | 16.31% | - |
| `Cn1nccc1C(=O)N1CCCC1c1ccc(C(=O)N2CCOCC2)s1` (configuration not stated) | 4.465% | 12.78% | 9.966% |
| `CC(CCSc1ccccc1)N1CCCN(C(N)=O)CC1` (configuration not stated) | 30.42% | -11.72% | 8.865% |
| `COc1ccccc1N1CCN(Cc2nccc(OC)c2OC)CC1=O` | 13.7% | -39.26% | 6.138% |
| `Cc1n[nH]c(C2CN(C(=O)COCC(F)(F)F)CCO2)n1` (configuration not stated) | 21.56% | -9.622% | 1.292% |
| `O=C(CN1CCCCC1Cn1cncn1)NCc1ccccn1` (configuration not stated) | 15.32% | -1.391% | 7.981% |
| `C[C@@H]1CN(Cc2cccnc2)C[C@]12CCN(CCN1CCCC1)C2=O.O=C(O)C(F)(F)F.O=C(O)C(F)(F)F.O=C(O)C(F)(F)F` | -0.4449% | 25.59% | - |
| `Cc1cc(C)n(CC(C)NCc2cnc3c(C)cccn23)n1` (configuration not stated) | -1.192% | 6.841% | 14.93% |
| `CC(=O)N1CCCC1c1ccc(C(=O)N2CCOCC2)s1` (configuration not stated) | -10.37% | -24.52% | 4.833% |
| `Cc1nc(CN(C)C2CCN(CCCOc3ccccc3)C2)no1` (configuration not stated) | 28.63% | 3.559% | 10.1% |
| `COCCS(=O)(=O)N(Cc1cscn1)c1ccccc1` | 3.408% | - | 7.326% |
| `CO[C@H]1COCCN(C(=O)c2ccc(F)cc2)C1` | -11.92% | 1.876% | 15.79% |
| `COCCC(=O)N1CCCC2(CCCN2Cc2ccccc2F)C1.O=C(O)C(F)(F)F` (configuration not stated) | -33.92% | 4.795% | - |
| `COc1ccc2c(C)c(C(=O)NCCCc3csc(N)n3)oc2c1` | -36.68% | - | 6.767% |
| `CCn1c(C)nnc1SCCNc1cc(OC)ncn1` | -16.19% | - | 14.72% |
| `CC(C)(C)n1ncc2c(=O)[nH]c(N3CC(O)C3)nc21` | 13.74% | -9.536% | 4.963% |
| `CC(=O)c1ccc(NC(=O)N[C@H](C(=O)O)C(C)C)cc1` | -1.764% | 14.2% | 18.16% |
| `Cc1ccc(CN2CCC3(CC2)CC(NC(=O)c2ccccn2)CO3)o1` (configuration not stated) | 6.386% | 18.31% | 12.06% |
| `CCN(C)C(=O)c1cccc(C(=O)N(C)Cc2cccc(O)c2)c1` | -12.68% | -4.85% | 6.542% |
| `C[C@H]1CN(C(=O)c2ccoc2)C[C@@]12CCN(CCN(C)C)C2=O` | - | - | -0.3205% |
| `CCc1ncncc1C(=O)NCCNS(=O)(=O)c1ccc(C)cc1` | 17.02% | -18.79% | 10.42% |
| `O=C(O)CC(CC(=O)NCc1ccsc1)c1cccs1` (configuration not stated) | -3.145% | 10.31% | 19.27% |
| `COc1ccc(C(=O)NCCNC(=O)c2scnc2Cl)cc1` | -13.9% | -54.01% | 11.27% |
| `CN(C)C(=O)c1cc(NC(=O)N2CCCC(C(F)(F)F)C2)ccn1` (configuration not stated) | 1.459% | - | 16.43% |
| `C[C@H]1CN2C[C@H](O)CC2CN1Cc1ccncc1` (some centres not stated) | 20.55% | -5.268% | 8.924% |
| `O=C(O)C1(Cc2ccc(Cl)cc2)CCN(c2ncccc2F)CC1` | -13.21% | - | -1.423% |
| `CCNC(=O)N1CCc2ccc(NC(=O)C(C)c3ccsc3)cc21` (configuration not stated) | 9.49% | -7.199% | 14.93% |
| `CN(Cc1nnc(C2CC2)n1C)C1CCN(Cc2ccon2)C1` (configuration not stated) | -15.02% | -5.558% | 0% |
| `CC(=O)N(Cc1ncc(C(C)C)o1)C1CCN(Cc2ncc[nH]2)C1` (configuration not stated) | 13.23% | 31.54% | 11.11% |
| `CC(c1nc(C(C)(C)C)no1)N1CCC(N2CCCC2)CC1` (configuration not stated) | -44.37% | -59.02% | 6.183% |
| `Cc1ccsc1CNC(=O)c1ccc2c(c1)CCC(=O)N2` | -22.8% | -0.625% | 1.292% |
| `COCCN(Cc1cnn(C)c1)C(=O)C1CCCN(C2CCOCC2)C1` (configuration not stated) | 13.79% | - | 11.68% |
| `COc1ncc(C)cc1NC(=O)COCC(F)(F)F` | 4.851% | 7.927% | 7.124% |
| `CNS(=O)(=O)CC(=O)N(Cc1ccsc1)c1ccccc1` | -9.5% | 30.32% | 21.35% |
| `CN1CCOCC2(CCCN(C(=O)c3cn(C)cn3)C2)C1` (configuration not stated) | - | - | 19.26% |
| `CSc1ncccc1C(=O)N(CCO)Cc1ccccc1` | 48.46% | -12.92% | 3.056% |
| `Cc1ccc(CN2CCOCS2(=O)=O)cc1F` | 14.23% | 15.25% | 15.77% |
| `CCOc1cc(C(=O)N2CCN(C)CC2)cc2occc12` | -1.186% | 3.914% | 12.75% |
| `O=C(O)c1ccnc(-c2ccnc(N3CCC4(CCO4)CC3)n2)c1` | -5.632% | -13.71% | 20.41% |

The first 6 entries again:

{"compound": "COc1ccc(CNC(Cc2ccsc2)c2ccc(C)cn2)cc1OC.Cl", "stereo": "configuration not stated", "A": 97.07, "B": 26.36}
{"compound": "COc1cc(CNC(C)Cn2ccnc2)cc2c1OCO2.Cl", "stereo": "configuration not stated", "A": -13.26}
{"compound": "Cc1cc(CN2CCCC2Cn2cccn2)no1", "stereo": "configuration not stated", "A": 23.5, "C": 11.05}
{"compound": "Cc1cnc(C(=O)N2C[C@H]3CN(Cc4cccnc4)C[C@H]3C2)cn1", "C": 10.46}
{"compound": "Cc1cc(CN2CCN(C(=O)c3sccc3C3CC3)CC2)on1", "A": -10.94, "C": 9.722}
{"compound": "CNC(=O)[C@H]1C[C@@H]2CN(Cc3ccc(C)cc3)C[C@H]1O2", "C": 7.143}

The values are deposited in ChEMBL (CHEMBL3988442, “University of Dundee, Small-Polar-MMV Screening Library” (2021)).